Laboratory results as given in PubChem BioAssay AID624297 (National Center for Advancing Translational Sciences (NCATS), 2012).
Hit rate of the full screen: of about 340,000 compounds, about 6,200 (1.8%) were called active. The shares of active, inactive and inconclusive entries below differ from those in the screen. The call rests on the fitted dose curve; in most records, active means well fitted activation curve with a large enough effect; inconclusive means small, poorly fitted or top-dose-only effect; inactive means no such curve, though single readings can be large or run the other way. Potencies beside an inconclusive call are fits to weak or partial responses and may not hold up.
Potency means the concentration at half of the fitted maximal effect.

Assay: A quantitative high throughput screen for small molecules that induce DNA re-replication in SW480 colon adenocarcinoma cells. Further: nearly all actives have a fitted effect of over 55% in size. On re-replication activation: % of control where 0% means no effect.
Settings: Hoechst DNA content imaging, 48 h; re-replication activation: at 46.1 µM (top of the series) unless noted
Summary of the method: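 DNA re-replication was detected as more nuclei of elevated Hoechst intensity after 48 hr exposure to compound (23 nL pinned per well of 250 cells).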
With COC(=O)CC1C(=O)NC2CCCCC2N1C(=O)CCl (stereo not given) the “re-replication activation” value was inactive: 12.5%. With Cc1cc(C)c2c(NC(=S)NC(=O)c3ccccc3)nn(C)c2n1 the “re-replication activation” value was inactive: 1.77%. For COc1ccc(C(=O)NC(=S)NNC(=O)c2ccccc2C)cc1, the “re-replication activation” value was inactive: 4.27%. In the case of CCOC(=O)c1[nH]c(C)c(C(=O)Nc2ccc(C)c(F)c2)c1C, the Potency is reported as active: 11.6 µM. In the case of O=C(CSc1nc2ccccc2s1)Nn1cnnc1, the Potency is reported as inconclusive: 14.6 µM [activator, partial curve, poor fit]. With CCOc1ccc(Br)cc1S(=O)(=O)Nc1ccc(C(=O)OCC(=O)Nc2ccc(C#N)cc2)cc1 the Potency was inconclusive: 0.731 µM [activator, full curve, poor fit]. With Cc1[nH]c2ccccc2c1/C=N/NC(=O)C1CC1(c1ccccc1)c1ccccc1 (stereo not given) the Potency was inconclusive: 29.1 µM [activator, single point]. With O=C(Nc1ccc(Oc2ccc(Br)cc2)cc1)C1=CC=CN2CCS(=O)(=O)N=C12 the Potency was inconclusive: 29.1 µM [activator, single point]. With Cc1ccc(S(=O)(=O)NC(=S)NC2CCCCC2)cc1 the “re-replication activation” value was inactive: 1.72%. With CCOC(=O)C1=CN2CCC[C@H]2CC1=O the Potency was inconclusive: 14.6 µM [activator, single point]. With CCN(Cc1ccc(OC)c(COC)c1)CC1CCCN(CCc2cccc(F)c2)C1 (stereo not given) the Potency was inconclusive: 7.31 µM [activator, partial curve]. For Cc1ccc(NC(=O)C(NC2CCCc3ccccc32)c2ccccc2)cc1Cl (stereo not given), the Potency was inconclusive: 0.231 µM [activator, full curve, poor fit]. In the case of COc1cc(C(=O)NC(=S)Nc2ccc(Cl)cn2)cc(OC)c1OC, the Potency is reported as active: 18.4 µM. With COc1cccc(-c2nn(-c3ccc(C)cc3)cc2C(=O)N2CCc3cc(OC)c(OC)cc3C2)c1 the Potency was inconclusive: 23.1 µM [activator, partial curve, poor fit]. For CC(C)NC(=O)c1sc(=S)n2c1[nH]c(=O)c1ccc(C(=O)NCCc3ccc(Cl)cc3)cc12, the Potency was inconclusive: 5.8 µM [activator, full curve, poor fit]. For O=C(c1cc2cc(F)ccc2[nH]1)N1CCN(c2cccc(Cl)c2)CC1, the “re-replication activation” value was inactive: -21.4%. In the case of CC(=O)N1N=C(c2ccccc2)CC1c1ccccc1 (stereo not given), the “re-replication activation” value is reported as inactive: 15.9%. In the case of O=C(N/N=C/c1ccc([N+](=O)[O-])o1)C(O)c1ccccc1 (stereo not given), the Potency is reported as inconclusive: 11.6 µM [activator, partial curve]. In the case of NNc1nc2sc3c(c2c(=O)n1-c1ccccc1)CCCC3, the Potency is reported as inconclusive: 2.06 µM [activator, partial curve, poor fit]. With CCc1ccccc1N(CC)C(=O)C1CCN(c2ncnc3c2nc2n3CCCCC2)CC1 the Potency was inconclusive: 29.1 µM [activator, single point]. In the case of COc1cc(OC)cc(C(=O)NCc2ccc(-n3cccc3)cc2)c1, the Potency is reported as inconclusive: 25.9 µM [activator, single point]. With CCOC(=O)C1=C(C)NC(C)=C(C(=O)OCC)C1c1ccc([N+](=O)[O-])s1 the “re-replication activation” value was inactive: 0.803%. In the case of Nc1ccc2nc(Cc3ccccc3)[nH]c2c1, the Potency is reported as inconclusive: 20.6 µM [activator, single point]. With O=C(CCCC(=O)NN=Cc1ccccc1Cl)NN=Cc1ccccc1Cl the “re-replication activation” value was inactive: -6.54%. In the case of COc1ccc(C(=O)Cn2c(C(=O)/C=C/c3ccccc3)nc3ccccc32)cc1, the Potency is reported as inconclusive: 16.4 µM [activator, single point]. In the case of Cc1ccc(OCC(=O)N/N=C\c2ccncc2)c(C)c1, the Potency is reported as inconclusive: 29.1 µM [activator, single point]. In the case of CC(C)n1c(/N=C/c2ccccc2O)nc2ccccc21, the Potency is reported as inconclusive: 20.6 µM [activator, single point]. For O=C(COc1ccc(S(=O)(=O)N2CCOCC2)cc1)Nc1ccccc1F, the Potency was inconclusive: 29.1 µM [activator, partial curve, poor fit]. For COC(=O)c1ccccc1NC(=O)c1cc[n+]([O-])cc1, the re-replication activation was inconclusive: 29.8% [activator]. In the case of COc1ccc(C(=O)/C=C/Nc2ccccn2)c(OC)c1, the “re-replication activation” value is reported as inactive: -12.6%. For CC[C@]12c3[nH]c4cc(-c5ccco5)ccc4c3CCN1C(=O)[C@@H](CC(=O)NCc1ccc(OC)c(OC)c1)C[C@@H]2C(=O)N1CCN(C(=O)c2ccco2)CC1, the Potency was active: 4.11 µM. In the case of COc1ccc(-c2cnc3c(-c4ccc(F)cc4)cnn3c2N)cc1, the Potency is reported as inconclusive: 1.84 µM [activator, partial curve, poor fit]. In the case of COc1cc(C2NC(=O)c3ccccc3O2)cc(OC)c1OC (stereo not given), the “re-replication activation” value is reported as inactive: -3.58%. For CCC(C)NCC(=O)Nc1ccc(-c2nc3cc(NC(=O)CNC(C)CC)ccc3o2)cc1 (stereo not given), the Potency was inconclusive: 20.6 µM [activator, single point]. With O=C(N/N=C\C=C\c1ccco1)C1COc2ccccc2O1 (stereo not given) the Potency was inconclusive: 20.6 µM [activator, single point]. For CCc1ccc(NC(=O)CS(=O)CC(=O)Nc2ccc(N3CCOCC3)cc2)cc1 (stereo not given), the “re-replication activation” value was inactive: 27.1%. In the case of CCOC(=O)C1(CCOc2ccccc2)CCN(Cc2ccc(NC(C)=O)cc2)CC1, the Potency is reported as inconclusive: 9.2 µM [activator, single point]. With N#Cc1c(Nc2ccccc2)s[nH]c1=O the Potency was inconclusive: 18.4 µM [activator, single point]. For COc1ccc(CCNC(=O)c2ccc3nc4cc(Cl)ccc4c(=O)n3c2)cc1OC, the Potency was inconclusive: 29.1 µM [activator, single point]. For COc1ccc(C)cc1Nc1n[n+](-c2ccccc2)c(-c2ccc(OC)c(OC)c2OC)s1, the “re-replication activation” value was inactive: 0.338%. For Cc1c(CN2CCC(CO)(Cc3ccccc3)CC2)c2ccccc2n1C, the Potency was inconclusive: 16.4 µM [activator, single point]. With COc1ccc(OCc2cc(C(=O)N(C)Cc3cc(C4CC4)n[nH]3)no2)c(Cl)c1 the “re-replication activation” value was inactive: -0.831%. For Cc1ccc(CCCNC(=O)C2CCC(=O)N(Cc3cccc(F)c3)C2)cc1 (stereo not given), the “re-replication activation” value was inactive: -8.88%. In the case of COc1ccc(C(NC(=O)c2ccc(F)cc2)c2ccccc2)cc1 (stereo not given), the “re-replication activation” value is reported as inactive: -3.62%. In the case of CN(Cc1nc(CCc2ccccc2)no1)Cc1cccs1, the Potency is reported as inconclusive: 0.184 µM [activator, full curve, poor fit].
